Test results from article PMC7889885.
Numbering of substitutions follows the chain as printed. Numbers in names are those of the source. Results are given in words; binding and its absence hold for the method and conditions named. For some assays here: Binding seen in cells or lysates may run through a third protein. Some binding calls cover weakened binding; strength is not graded here. Tags and fused reporters may be left off the sequences shown. Values belong to the binder of their own block, whether it stands above or below them.

What was measured:
[1] = target: full-length hNKCC1 tagged with flag and YFP, A735C in the C723S-C724V double mutation (human) (UniProt P55011); test: cross-linking; oxidative cross-linking of single-cysteine mutants in HEK293 cells with 1.5 mM cupric phenanthroline in regular medium for 10-40 min before lysis; blot with T4 antibody
[2] = target: full-length hNKCC1 tagged with flag and YFP, W732C (human) (UniProt P55011); test: cross-linking; spontaneous disulfide cross-linking of single-cysteine mutants in HEK293 cells, without cupric phenanthroline; lysate on 7.5% Tris-glycine gel, blot with T4 antibody
[3] = target: full-length hNKCC1 tagged with flag and YFP, W732C (human) (UniProt P55011); test: cross-linking; HEK293 cells treated with 200 uM MTS-3-MTS (1,3-propanediyl bismethanethiosulfonate) in regular medium for 10 min; MTSET as control; blot
[4] = target: full-length hNKCC1 tagged with flag and YFP, W732C (human) (UniProt P55011); test: cross-linking; HEK293 cells treated with 1 mM I2 in regular medium for 2 min; quenched with EDTA + N-ethyl maleimide; blot
[5] = target: full-length hNKCC1 tagged with flag and YFP, F728C (human) (UniProt P55011); test: cross-linking; HEK293 cells treated with 200 uM MTS-3-MTS (1,3-propanediyl bismethanethiosulfonate) in regular medium for 10 min; MTSET as control; blot
[6] = target: full-length hNKCC1 tagged with flag and YFP, F728C (human) (UniProt P55011); test: cross-linking; oxidative cross-linking of single-cysteine mutants in HEK293 cells with 1.5 mM cupric phenanthroline in regular medium for 10-40 min before lysis; blot with T4 antibody
[7] = target: full-length hNKCC1 tagged with flag and YFP, F728C (human) (UniProt P55011); test: cross-linking; HEK293 cells treated with 1 mM I2 in regular medium for 2 min; quenched with EDTA + N-ethyl maleimide; blot
[8] = target: full-length hNKCC1 tagged with flag and YFP, W733C (human) (UniProt P55011); test: cross-linking; HEK293 cells treated with 200 uM MTS-3-MTS (1,3-propanediyl bismethanethiosulfonate) in regular medium for 10 min; MTSET as control; blot
[9] = target: full-length hNKCC1 tagged with flag and YFP, W733C (human) (UniProt P55011); test: cross-linking; oxidative cross-linking of single-cysteine mutants in HEK293 cells with 1.5 mM cupric phenanthroline in regular medium for 10-40 min before lysis; blot with T4 antibody
[10] = target: full-length hNKCC1 tagged with flag and YFP, W733C (human) (UniProt P55011); test: cross-linking; HEK293 cells treated with 1 mM I2 in regular medium for 2 min; quenched with EDTA + N-ethyl maleimide; blot
[11] = target: T1, mouse KCC2 (mKCC2a, SLC12A5), twin-Strep tagged, as prepared for cryo-EM (mouse), Q91V14; test: cryo-EM structure; single-particle cryo-EM of the purified transporter in 20 mM HEPES pH 7.4, 150 mM NaCl, 0.1% digitonin, ~10 mg/ml; C2 symmetry imposed; both purified; conditions: remark: other sources report otherwise
T1 chain: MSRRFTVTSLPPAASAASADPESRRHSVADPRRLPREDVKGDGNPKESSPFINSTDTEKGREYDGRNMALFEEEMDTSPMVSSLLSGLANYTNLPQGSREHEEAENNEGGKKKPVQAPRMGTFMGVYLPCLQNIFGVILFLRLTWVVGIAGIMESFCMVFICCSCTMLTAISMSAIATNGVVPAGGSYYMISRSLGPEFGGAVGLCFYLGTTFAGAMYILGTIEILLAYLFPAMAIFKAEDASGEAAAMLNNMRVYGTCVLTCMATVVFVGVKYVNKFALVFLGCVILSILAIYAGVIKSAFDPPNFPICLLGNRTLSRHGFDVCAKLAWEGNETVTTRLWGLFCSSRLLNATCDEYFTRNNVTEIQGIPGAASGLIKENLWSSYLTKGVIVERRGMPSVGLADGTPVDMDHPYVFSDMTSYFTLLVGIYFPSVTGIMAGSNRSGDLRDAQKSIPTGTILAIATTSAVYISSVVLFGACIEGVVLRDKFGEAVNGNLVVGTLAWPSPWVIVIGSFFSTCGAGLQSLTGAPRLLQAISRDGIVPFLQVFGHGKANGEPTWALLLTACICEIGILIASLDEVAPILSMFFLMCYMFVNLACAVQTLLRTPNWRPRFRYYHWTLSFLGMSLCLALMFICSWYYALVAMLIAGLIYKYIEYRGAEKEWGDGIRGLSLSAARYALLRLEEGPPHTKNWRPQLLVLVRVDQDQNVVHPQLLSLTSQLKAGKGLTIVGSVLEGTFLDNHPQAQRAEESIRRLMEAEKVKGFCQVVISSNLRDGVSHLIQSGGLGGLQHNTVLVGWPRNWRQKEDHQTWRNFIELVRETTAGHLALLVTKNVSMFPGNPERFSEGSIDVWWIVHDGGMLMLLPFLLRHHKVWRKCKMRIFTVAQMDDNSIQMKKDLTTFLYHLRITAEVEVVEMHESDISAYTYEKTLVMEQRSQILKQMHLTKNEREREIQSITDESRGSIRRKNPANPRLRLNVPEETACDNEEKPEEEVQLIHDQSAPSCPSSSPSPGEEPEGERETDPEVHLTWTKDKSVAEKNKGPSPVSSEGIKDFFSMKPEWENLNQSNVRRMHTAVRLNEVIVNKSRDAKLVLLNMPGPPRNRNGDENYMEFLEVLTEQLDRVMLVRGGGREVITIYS

- binding [1]: binds
B1: full-length hNKCC1 tagged with flag and YFP, A735C in the C723S-C724V double mutation (protein, UniProt P55011 1-1212)
chain: MEPRPTAPSSGAPGLAGVGETPSAAALAAARVELPGTAVPSVPEDAAPASRDGGGVRDEGPAAAGDGLGRPLGPTPSQSRFQVDLVSENAGRAAAAAAAAAAAAAAAGAGAGAKQTPADGEASGESEPAKGSEEAKGRFRVNFVDPAASSSAEDSLSDAAGVGVDGPNVSFQNGGDTVLSEGSSLHSGGGGGSGHHQHYYYDTHTNTYYLRTFGHNTMDAVPRIDHYRHTAAQLGEKLLRPSLAELHDELEKEPFEDGFANGEESTPTRDAVVTYTAESKGVVKFGWIKGVLVRCMLNIWGVMLFIRLSWIVGQAGIGLSVLVIMMATVVTTITGLSTSAIATNGFVRGGGAYYLISRSLGPEFGGAIGLIFAFANAVAVAMYVVGFAETVVELLKEHSILMIDEINDIRIIGAITVVILLGISVAGMEWEAKAQIVLLVILLLAIGDFVIGTFIPLESKKPKGFFGYKSEIFNENFGPDFREEETFFSVFAIFFPAATGILAGANISGDLADPQSAIPKGTLLAILITTLVYVGIAVSVGSCVVRDATGNVNDTIVTELTNCTSAACKLNFDFSSCESSPCSYGLMNNFQVMSMVSGFTPLISAGIFSATLSSALASLVSAPKIFQALCKDNIYPAFQMFAKGYGKNNEPLRGYILTFLIALGFILIAELNVIAPIISNFFLASYALINFSVFHASLAKSPGWRPAFKYYNMWISLLGAILSVIVMFVINWWACLLTYVIVLGLYIYVTYKKPDVNWGSSTQALTYLNALQHSIRLSGVEDHVKNFRPQCLVMTGAPNSRPALLHLVHDFTKNVGLMICGHVHMGPRRQAMKEMSIDQAKYQRWLIKNKMKAFYAPVHADDLREGAQYLMQAAGLGRMKPNTLVLGFKKDWLQADMRDVDMYINLFHDAFDIQYGVVVIRLKEGLDISHLQGQEELLSSQEKSPGTKDVVVSVEYSKKSDLDTSKPLSEKPITHKVEEEDGKTATQPLLKKESKGPIVPLNVADQKLLEASTQFQKKQGKNTIDVWWLFDDGGLTLLIPYLLTTKKKWKDCKIRVFIGGKINRIDHDRRAMATLLSKFRIDFSDIMVLGDINTKPKKENIIAFEEIIEPYRLHEDDKEQDIADKMKEDEPWRITDNELELYKTKTYRQIRLNELLKEHSSTANIIVMSLPVARKGAVSSALYMAWLEALSKDLPPILLVRGNHQSVLTFYS

- binding [2]: binds
- binding [3]: binds
- binding [4]: binds
B2: full-length hNKCC1 tagged with flag and YFP, W732C (protein, UniProt P55011 1-1212)
chain: B1 chain with S723C, V724C, W732C, C735A

- binding [5]: binds
- binding [6]: binds
- binding [7]: binds
B3: full-length hNKCC1 tagged with flag and YFP, F728C (protein, UniProt P55011 1-1212)
chain: B1 chain with S723C, V724C, F728C, C735A

- binding [8]: binds
- binding [9]: binds
- binding [10]: binds
B4: full-length hNKCC1 tagged with flag and YFP, W733C (protein, UniProt P55011 1-1212)
chain: B1 chain with S723C, V724C, W733C, C735A

- binding [11]: binds
B5: mouse KCC2 (mKCC2a, SLC12A5), twin-Strep tagged, as prepared for cryo-EM, Q91V14 1-1138 (natural protein)
chain: T1 chain
modifications: here or on the partner: phosphorylation at T929 and T1029 (confirmed by mass spectrometry); phosphorylation at T929 and T1029 (confirmed by mass spectrometry)
